In assay [1] the target is Bovine Serum Albumin (bovine) (UniProt P02769). Nature of the assay: pull-down; 10 ug of 6xHis-tagged protein bound to Ni-NTA beads (legend: nickel or protein-A Sepharose beads covered with rSRSF3, rU2AF65, rU2AF65-RS or BSA), blocked in 10% BSA, incubated overnight at 4°C with 200 ug of H69 nuclear extract in PBS, washed three times with PBS; bound proteins detected by western blot; only the target purified.

Protein sequences, listed by entry. Tags and fused reporters are not part of them. Residues count along the entry.
UniProt P02769, residues 25-607: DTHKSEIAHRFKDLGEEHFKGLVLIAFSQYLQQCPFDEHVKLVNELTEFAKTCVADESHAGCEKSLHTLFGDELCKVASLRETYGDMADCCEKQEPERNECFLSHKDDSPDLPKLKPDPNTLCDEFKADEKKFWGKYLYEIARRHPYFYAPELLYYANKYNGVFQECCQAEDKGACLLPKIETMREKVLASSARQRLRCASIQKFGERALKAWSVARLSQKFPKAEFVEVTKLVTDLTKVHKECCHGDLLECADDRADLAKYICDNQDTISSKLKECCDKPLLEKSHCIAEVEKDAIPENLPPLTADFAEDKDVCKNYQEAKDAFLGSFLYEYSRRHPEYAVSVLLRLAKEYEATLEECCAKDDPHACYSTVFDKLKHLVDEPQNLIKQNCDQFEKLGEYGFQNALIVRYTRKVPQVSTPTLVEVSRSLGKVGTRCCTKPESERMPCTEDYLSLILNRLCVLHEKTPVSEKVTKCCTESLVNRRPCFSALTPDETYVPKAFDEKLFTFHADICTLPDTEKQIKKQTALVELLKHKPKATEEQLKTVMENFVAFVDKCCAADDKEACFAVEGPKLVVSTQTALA
UniProt P26368: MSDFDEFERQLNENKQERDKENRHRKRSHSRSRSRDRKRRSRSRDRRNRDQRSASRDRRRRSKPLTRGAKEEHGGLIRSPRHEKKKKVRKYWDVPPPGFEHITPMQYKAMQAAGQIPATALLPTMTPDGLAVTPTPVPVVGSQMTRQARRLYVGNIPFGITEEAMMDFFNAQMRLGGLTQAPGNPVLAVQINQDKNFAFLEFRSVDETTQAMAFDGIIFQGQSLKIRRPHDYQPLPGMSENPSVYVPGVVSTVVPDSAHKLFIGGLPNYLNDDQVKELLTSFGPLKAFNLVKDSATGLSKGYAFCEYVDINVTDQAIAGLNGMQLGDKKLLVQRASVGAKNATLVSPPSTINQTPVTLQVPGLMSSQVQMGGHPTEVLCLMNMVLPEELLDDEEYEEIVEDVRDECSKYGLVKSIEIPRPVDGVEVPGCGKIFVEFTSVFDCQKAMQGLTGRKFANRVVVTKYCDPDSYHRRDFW
UniProt P08621: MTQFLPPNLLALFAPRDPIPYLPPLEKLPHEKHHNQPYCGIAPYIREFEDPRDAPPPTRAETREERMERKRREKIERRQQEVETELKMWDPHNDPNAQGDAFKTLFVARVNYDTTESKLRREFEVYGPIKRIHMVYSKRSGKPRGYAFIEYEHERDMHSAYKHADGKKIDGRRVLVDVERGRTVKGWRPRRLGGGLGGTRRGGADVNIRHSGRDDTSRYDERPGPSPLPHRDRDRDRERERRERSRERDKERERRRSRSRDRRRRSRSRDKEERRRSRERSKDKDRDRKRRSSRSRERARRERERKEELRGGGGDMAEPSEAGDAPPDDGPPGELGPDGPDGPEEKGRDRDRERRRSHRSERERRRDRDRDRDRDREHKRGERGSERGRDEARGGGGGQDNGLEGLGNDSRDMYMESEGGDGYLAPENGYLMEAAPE

For assay [2], the target named is recombinant U2AF65, full-length, 6xHis-tagged (UniProt P26368). The assay is described as above.

Results are given in words; binding and its absence hold for the method and conditions named. In cells and extracts the contact can be indirect. Some results given as binding are weak or reduced against the parent protein; the word gives no strength.

This note sets out measurements from PMC3390395.

As for “U1 snRNP 70K (from UniProt P08621 1-437)”, the binding entry in assay [1] is recorded as “no binding”; in assay [2] it was “binds”.
